Laboratory results published in patent US7601728B2, “Bicyclic pyrrole derivatives” (Dainippon Sumitomo Pharma Co., Ltd., priority 2004, dated 2009).
Structures were worked out from names or drawings and are uncertain.

By UniProt entry, the sequences of proteins in these tests, tags left out. Residues count along the entry.
UniProt P27487, 39-766 limits assumed: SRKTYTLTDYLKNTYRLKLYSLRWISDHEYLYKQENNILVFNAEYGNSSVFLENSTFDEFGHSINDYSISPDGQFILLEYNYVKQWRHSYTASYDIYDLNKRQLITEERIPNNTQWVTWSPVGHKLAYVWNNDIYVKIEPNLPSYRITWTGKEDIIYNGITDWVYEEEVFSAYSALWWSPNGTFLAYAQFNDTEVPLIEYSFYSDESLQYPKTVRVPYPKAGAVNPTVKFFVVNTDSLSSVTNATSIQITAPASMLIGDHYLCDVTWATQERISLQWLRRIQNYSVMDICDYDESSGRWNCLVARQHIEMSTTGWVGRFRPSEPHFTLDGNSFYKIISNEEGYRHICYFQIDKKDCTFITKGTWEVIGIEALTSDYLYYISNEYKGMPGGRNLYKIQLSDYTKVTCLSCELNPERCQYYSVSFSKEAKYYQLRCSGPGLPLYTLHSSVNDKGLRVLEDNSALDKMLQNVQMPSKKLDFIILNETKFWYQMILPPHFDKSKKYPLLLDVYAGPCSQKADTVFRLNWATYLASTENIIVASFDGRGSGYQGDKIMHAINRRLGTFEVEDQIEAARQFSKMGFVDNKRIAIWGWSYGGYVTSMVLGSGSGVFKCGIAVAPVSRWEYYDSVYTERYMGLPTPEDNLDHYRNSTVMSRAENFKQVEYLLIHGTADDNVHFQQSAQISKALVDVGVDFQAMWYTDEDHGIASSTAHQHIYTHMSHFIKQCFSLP

Molecular target: Human DPP IV (Homo sapiens, UniProt P27487)
Experiment: In Vitro DPP-IV Inhibitory Effect Measurement Test
Format: biochemical
Conditions: read-out: Human DPP IV inhibiting activity IC50; human serum containing DPP-IV enzyme; substrate Glycyl-L-Proline 4-Methyl-Coumaryl-7-Amide 10 to 100 μM; room temperature; fluorescence 360/460 nm; tested form: CF3CO2H

SMILES: Cn1c(=O)c2c(c(C=O)c(N3CCC[C@@H](N)C3)n2Cc2ccccc2Cl)n(C)c1=O
- IC50: 28 nM
